Test results taken from publication PMC9446545.
These are yes or no findings as the source states them, for the method shown. For part of these data: Binding seen in cells or lysates may run through a third protein. Some entries that bind do so weakly or less than the wild type. For part of these data: Where a sequence is shown, tags or fusion partners need not be part of it.

The chains behind the UniProt entries cited, without tags or fusion partners.
UniProt O09106: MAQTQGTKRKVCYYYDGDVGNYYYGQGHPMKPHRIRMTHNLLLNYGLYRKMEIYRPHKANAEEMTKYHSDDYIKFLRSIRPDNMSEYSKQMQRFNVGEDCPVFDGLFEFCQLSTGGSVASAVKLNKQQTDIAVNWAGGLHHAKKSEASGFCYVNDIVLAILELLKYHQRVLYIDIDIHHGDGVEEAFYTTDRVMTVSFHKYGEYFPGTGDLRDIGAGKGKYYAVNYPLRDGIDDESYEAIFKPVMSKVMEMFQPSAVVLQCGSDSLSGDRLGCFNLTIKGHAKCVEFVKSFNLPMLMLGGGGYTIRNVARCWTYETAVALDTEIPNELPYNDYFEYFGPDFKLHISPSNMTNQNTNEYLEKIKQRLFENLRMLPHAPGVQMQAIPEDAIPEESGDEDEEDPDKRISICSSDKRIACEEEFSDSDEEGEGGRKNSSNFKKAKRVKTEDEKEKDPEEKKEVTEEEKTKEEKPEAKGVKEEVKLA
UniProt Q13547: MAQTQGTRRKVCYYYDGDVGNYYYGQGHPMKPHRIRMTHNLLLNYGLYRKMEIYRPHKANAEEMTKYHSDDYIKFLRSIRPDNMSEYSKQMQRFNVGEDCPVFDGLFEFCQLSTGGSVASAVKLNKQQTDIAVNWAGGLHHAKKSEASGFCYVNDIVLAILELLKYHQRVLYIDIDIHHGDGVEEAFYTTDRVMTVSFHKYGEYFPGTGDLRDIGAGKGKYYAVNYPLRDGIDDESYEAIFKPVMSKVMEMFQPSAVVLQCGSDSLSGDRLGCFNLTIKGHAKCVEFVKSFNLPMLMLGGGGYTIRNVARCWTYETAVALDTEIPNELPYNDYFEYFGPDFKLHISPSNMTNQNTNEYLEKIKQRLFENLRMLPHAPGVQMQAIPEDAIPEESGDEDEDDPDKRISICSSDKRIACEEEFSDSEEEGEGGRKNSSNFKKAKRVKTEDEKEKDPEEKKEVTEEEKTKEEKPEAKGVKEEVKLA
UniProt P70288: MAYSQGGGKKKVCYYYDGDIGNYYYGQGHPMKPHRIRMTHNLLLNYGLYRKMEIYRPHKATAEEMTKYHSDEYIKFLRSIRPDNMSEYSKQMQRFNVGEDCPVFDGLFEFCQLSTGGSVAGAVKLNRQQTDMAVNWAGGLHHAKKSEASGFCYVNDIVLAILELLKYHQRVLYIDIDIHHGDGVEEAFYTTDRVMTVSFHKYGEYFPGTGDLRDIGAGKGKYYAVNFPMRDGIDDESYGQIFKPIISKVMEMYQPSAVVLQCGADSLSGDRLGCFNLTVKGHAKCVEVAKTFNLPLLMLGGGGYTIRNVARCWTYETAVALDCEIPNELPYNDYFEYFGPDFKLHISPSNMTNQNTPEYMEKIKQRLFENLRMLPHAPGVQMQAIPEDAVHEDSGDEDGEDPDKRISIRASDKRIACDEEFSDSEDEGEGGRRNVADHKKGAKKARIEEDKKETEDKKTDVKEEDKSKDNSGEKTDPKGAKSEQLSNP
UniProt Q92769: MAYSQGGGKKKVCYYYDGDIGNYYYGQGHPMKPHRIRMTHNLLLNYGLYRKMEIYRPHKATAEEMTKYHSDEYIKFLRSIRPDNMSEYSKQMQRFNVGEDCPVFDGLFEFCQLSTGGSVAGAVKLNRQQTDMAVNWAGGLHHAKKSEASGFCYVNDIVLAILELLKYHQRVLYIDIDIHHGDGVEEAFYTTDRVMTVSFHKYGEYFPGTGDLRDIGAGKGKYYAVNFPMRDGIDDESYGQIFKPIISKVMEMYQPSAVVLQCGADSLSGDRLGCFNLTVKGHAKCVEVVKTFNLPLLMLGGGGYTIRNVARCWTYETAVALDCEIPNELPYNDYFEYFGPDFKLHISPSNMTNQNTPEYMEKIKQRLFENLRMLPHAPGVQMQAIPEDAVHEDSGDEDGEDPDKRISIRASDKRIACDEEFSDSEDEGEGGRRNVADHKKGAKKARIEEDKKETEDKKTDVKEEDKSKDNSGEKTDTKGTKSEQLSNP

What was measured:
[1] = biological target: T1, ZCWPW1 (endogenous, mouse testes) (mouse (endogenous in mouse testes)) (UniProt Q6IR42); assay: co-IP; PD14-PD16 mouse testes protein extracts (WT; Zcwpw1-/- as control), Pierce IP lysis buffer (25 mM Tris-HCl pH 7.4, 150 mM NaCl, 1 mM EDTA, 1% NP-40, 5% glycerin); IP with anti-ZCWPW1 antibody overnight at 4°C, protein A/G beads, immunoblot
T1 sequence: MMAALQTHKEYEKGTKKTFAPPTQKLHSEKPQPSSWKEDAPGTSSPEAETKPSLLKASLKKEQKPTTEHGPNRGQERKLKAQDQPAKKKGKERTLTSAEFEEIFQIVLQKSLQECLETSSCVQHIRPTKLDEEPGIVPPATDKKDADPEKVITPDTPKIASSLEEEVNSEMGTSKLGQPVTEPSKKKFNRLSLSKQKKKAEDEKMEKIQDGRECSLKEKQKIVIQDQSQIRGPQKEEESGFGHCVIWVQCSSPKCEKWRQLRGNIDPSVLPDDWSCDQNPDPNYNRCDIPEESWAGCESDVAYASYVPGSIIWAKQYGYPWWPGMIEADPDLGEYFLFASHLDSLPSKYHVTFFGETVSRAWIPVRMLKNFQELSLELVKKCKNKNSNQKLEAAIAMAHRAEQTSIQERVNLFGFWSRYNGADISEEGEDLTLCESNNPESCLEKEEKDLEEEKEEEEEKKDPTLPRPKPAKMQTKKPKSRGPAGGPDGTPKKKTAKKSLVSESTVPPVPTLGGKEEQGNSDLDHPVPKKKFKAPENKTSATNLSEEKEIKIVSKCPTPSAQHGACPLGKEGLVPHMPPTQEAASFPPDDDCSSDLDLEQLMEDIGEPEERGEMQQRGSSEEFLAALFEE

[2] = biological target: T2, ZCWPW1-EGFP (mouse Zcwpw1 in pCAG-GFP) (mouse) (UniProt Q6IR42); assay: co-IP; HeLa cells transfected with ZCWPW1-GFP plasmid for 48 h, Pierce IP lysis buffer; IP with GFP antibody, protein A/G beads, immunoblot for HDAC1, HDAC2, HDAC6
T2 sequence: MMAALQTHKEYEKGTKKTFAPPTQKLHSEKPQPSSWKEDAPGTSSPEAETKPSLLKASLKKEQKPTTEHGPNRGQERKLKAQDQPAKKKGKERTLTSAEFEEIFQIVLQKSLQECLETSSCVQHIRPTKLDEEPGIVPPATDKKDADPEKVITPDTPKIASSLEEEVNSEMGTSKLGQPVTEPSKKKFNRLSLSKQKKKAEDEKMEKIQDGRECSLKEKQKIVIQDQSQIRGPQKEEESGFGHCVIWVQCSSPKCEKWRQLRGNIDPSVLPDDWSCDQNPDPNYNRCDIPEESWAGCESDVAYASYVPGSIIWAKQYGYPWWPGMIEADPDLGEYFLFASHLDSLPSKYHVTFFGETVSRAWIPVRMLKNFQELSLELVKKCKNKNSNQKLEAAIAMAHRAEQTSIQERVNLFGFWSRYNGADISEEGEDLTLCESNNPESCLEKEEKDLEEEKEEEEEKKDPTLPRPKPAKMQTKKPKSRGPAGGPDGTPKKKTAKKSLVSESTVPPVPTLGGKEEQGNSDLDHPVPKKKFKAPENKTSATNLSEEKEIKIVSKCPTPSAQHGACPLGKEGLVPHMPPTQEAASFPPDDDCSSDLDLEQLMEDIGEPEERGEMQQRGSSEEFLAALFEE

[3] = biological target: T3, ZCWPW1, full length mouse, in pGBKT7 (two-hybrid bait) (mouse) (UniProt Q6IR42); assay: two-hybrid; Zcwpw1 in pGBKT7 as bait, preys in pGADT7, co-transformed into yeast two-hybrid gold strain; selection on SD/-Leu/-Trp/-His
T3 sequence: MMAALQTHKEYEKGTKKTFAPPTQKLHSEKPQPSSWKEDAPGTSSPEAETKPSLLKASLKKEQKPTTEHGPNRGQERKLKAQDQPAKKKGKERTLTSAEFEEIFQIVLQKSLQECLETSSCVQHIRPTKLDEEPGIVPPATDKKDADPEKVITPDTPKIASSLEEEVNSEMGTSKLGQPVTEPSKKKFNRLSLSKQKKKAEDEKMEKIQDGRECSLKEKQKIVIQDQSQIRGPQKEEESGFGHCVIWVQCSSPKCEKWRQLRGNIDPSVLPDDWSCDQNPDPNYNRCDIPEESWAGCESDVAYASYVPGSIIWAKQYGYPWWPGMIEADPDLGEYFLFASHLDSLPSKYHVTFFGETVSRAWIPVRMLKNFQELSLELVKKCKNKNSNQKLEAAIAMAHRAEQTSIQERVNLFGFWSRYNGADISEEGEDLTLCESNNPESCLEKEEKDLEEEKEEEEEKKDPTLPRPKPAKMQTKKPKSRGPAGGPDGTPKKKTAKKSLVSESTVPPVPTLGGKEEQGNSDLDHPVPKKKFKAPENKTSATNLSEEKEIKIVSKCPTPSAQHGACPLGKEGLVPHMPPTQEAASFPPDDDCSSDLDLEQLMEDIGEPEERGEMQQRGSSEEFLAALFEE

| Substance | binding [1] | binding [2] | binding [3] |
| --- | --- | --- | --- |
| HDAC1 (endogenous, mouse testes) (from UniProt O09106 1-482) (enzyme) | binds | – | – |
| HDAC1 (in HeLa cells) (from UniProt Q13547 1-482) (enzyme) | – | binds | – |
| HDAC1, full length mouse, in pGADT7 (two-hybrid prey) (from UniProt O09106 1-482) (enzyme) | – | – | binds |
| HDAC2 (endogenous, mouse testes) (from UniProt P70288 1-488) (enzyme) | binds | – | – |
| HDAC2 (in HeLa cells) (from UniProt Q92769 1-488) (enzyme) | – | binds | – |
| HDAC2, full length mouse, in pGADT7 (two-hybrid prey) (from UniProt P70288 1-488) (enzyme) | – | – | binds |
